Test results published in patent publication US6617120.
For part of these data: The exact form of at least one protein or probe is not confirmed. For part of these data: Negatives hold for the conditions tested.

How the values were obtained:
[1] = tested on: RXR (endogenous, without OR-1); assay: activity in cells; conditions: no induction by 9-cis retinoic acid without OR-1; protein in cells; only the site is given
[2] = tested on: OR-1 with RXR in transfected cells; assay: activity in cells; conditions: DR4 reporter induced by 100 nM 9-cis retinoic acid; protein in cells; only the site is given
RXR = assay: EMSA; conditions: RXR alone; protein translated in vitro

## AGTCAGGTCACTCGAGGTCAGTCA (double strand) [DR4]
[1]
  activity on this sequence: not active
[2]
  activity on this sequence: active
RXR
  binding result: no binding
